For two molecules, binding results are on record in paper PMC10786121, “Rab29-dependent asymmetrical activation of leucine-rich repeat kinase 2” (Science (New York, N.Y.), 2023).

The chains behind the UniProt entries cited, without tags or fusion partners.
UniProt Q5S007: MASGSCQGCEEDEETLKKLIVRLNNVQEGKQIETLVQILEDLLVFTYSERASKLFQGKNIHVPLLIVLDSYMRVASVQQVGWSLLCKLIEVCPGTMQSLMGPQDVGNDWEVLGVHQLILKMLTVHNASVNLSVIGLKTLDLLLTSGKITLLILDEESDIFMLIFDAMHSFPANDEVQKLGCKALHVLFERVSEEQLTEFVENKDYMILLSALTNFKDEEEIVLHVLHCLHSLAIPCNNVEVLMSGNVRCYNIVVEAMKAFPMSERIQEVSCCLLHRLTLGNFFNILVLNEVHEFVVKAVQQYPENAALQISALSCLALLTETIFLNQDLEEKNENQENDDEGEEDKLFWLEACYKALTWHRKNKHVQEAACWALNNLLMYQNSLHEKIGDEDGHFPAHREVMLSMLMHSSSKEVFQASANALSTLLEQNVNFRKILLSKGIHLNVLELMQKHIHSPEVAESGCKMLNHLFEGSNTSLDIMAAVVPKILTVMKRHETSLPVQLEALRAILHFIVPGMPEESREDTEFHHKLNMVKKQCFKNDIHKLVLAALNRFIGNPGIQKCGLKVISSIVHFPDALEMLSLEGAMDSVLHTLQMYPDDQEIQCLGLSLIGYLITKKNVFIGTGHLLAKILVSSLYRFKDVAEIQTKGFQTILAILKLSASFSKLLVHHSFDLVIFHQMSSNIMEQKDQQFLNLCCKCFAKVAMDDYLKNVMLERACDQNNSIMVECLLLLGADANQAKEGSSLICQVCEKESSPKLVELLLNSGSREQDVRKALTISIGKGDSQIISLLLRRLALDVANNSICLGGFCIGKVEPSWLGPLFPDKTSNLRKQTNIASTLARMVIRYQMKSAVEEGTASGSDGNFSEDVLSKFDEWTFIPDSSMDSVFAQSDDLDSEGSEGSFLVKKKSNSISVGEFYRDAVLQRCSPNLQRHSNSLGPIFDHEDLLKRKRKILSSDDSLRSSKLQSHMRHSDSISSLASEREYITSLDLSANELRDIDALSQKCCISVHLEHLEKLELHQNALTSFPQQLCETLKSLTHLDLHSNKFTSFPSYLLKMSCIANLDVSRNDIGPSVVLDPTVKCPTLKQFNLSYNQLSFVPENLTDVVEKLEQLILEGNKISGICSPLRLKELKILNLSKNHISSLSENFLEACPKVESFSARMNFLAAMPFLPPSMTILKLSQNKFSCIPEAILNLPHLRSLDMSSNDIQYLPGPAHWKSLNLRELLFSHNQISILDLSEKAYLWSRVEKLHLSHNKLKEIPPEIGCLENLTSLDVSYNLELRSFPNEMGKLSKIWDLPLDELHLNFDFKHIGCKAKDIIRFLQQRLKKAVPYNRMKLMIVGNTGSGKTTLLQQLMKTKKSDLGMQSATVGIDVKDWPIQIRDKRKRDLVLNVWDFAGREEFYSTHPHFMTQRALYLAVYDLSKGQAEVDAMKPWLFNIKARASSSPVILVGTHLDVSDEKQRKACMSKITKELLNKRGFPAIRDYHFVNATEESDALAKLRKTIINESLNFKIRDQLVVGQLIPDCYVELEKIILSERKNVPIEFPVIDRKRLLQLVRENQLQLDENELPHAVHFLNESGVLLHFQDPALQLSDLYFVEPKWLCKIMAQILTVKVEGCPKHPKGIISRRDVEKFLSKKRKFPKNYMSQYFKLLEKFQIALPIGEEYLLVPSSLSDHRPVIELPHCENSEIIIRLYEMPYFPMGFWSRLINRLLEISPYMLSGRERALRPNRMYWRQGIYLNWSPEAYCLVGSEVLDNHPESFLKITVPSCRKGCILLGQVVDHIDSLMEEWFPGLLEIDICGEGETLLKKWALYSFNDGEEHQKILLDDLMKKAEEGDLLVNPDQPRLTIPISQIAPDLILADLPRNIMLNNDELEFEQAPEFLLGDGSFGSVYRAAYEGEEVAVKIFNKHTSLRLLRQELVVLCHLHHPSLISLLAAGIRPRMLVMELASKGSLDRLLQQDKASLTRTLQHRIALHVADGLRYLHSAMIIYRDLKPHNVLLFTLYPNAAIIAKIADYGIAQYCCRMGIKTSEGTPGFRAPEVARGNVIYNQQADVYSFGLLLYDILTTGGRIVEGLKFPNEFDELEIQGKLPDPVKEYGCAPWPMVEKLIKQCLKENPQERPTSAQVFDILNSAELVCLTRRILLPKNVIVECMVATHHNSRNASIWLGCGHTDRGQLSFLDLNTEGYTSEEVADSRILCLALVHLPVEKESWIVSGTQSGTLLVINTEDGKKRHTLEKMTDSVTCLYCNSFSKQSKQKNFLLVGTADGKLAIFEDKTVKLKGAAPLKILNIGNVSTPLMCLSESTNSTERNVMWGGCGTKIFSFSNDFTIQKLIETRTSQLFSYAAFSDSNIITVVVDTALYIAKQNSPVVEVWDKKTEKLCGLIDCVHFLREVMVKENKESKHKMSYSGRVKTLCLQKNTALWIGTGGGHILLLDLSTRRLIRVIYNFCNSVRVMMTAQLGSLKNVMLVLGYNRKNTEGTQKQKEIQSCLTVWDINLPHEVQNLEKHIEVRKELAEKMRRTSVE

These are yes or no findings as the source states them, for the method shown. For part of these data: In cells and extracts the contact can be indirect. Some entries that bind do so weakly or less than the wild type.

For experiment [1], the target named is leucine-rich repeat kinase 2 (LRRK2) (UniProt Q5S007). Description: pull-down; GST pulldown assay, in vitro (fig. S2G); which partner bore GST is not told in the text shown.
For experiment [2] the target is unchanged. Description: cryo-EM structure; complex reconstituted by mixing LRRK2, Rab29EM, GTP analog (GppNHp), ATP and Mg2+; three oligomeric assemblies (monomer, dimer, tetramer); C2 symmetry imposed for dimer and tetramer; both purified.
Experiment [3] has the same target. Description: cryo-EM 2D classification; Rab29 T71A/S72A–LRRK2 complex; 2D classification performed with cross-correlation (fig. S9E); both purified.

B1: Rab29EM (Rab29 Q67L, T71A, S72A) (natural protein)
chain: MGSRDHLFKVLVVGDAAVGKTSLVQRYSQDSFSKHYKSTVGVDFALKVLQWSDYEIVRLQLWDIAGLERFAAMTRLYYRDASACVIMFDVTNATTFSNSQRWKQDLDSKLTLPNGEPVPCLLLANKCDLSPWAVSRDQIDRFSKENGFTGWTETSVKENKNINEAMRVLIEKMMRNS
notes: Rab29, a Rab GTPase encoded in the PARK16 locus, with three point mutations; constructs are in the supplementary Materials and Methods; also called Rab29^peri
For the molecule B1, the binding result in experiment [1] and in experiment [2] was “binds” throughout.

B2: Rab29 T71A/S72A (protein, UniProt O14966 1-177)
chain: MGSRDHLFKVLVVGDAAVGKTSLVQRYSQDSFSKHYKSTVGVDFALKVLQWSDYEIVRLQLWDIAGQERFAAMTRLYYRDASACVIMFDVTNATTFSNSQRWKQDLDSKLTLPNGEPVPCLLLANKCDLSPWAVSRDQIDRFSKENGFTGWTETSVKENKNINEAMRVLIEKMMRNS
For B2, the binding entry in experiment [3] is “binds”.
